From the supplement of paper PMC8728848
Some of the results follow.

What was measured:
Test in all cases: glycan array binding signal (z-score within array); higher = stronger binding
Settings in all cases: glycan notation: IUPAC condensed, linker removed
[1] = molecular target: Gal3S(b1-4)Glc
In short: (§1)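 Arrays were curated from the Consortium for Functional Glycomics database, 3228 in total, and kept only where the protein sequence was available. Binding is expressed as a within-array Z-score. This score was averaged across arrays of the same protein sequence at different concentrations or buffers and across linkers, and negative values can be read as non-binding.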

[2] = molecular target: Gal3S(b1-4)Glc6S
In short: as §1

[3] = molecular target: Gal3S(b1-4)GlcNAc
In short: as §1

[4] = molecular target: Gal3S(b1-4)[Fuc(a1-3)]Glc6S
In short: as §1

[5] = molecular target: Gal3S(b1-4)[Fuc(a1-3)]GlcNAc
In short: as §1

[6] = molecular target: Gal3S(b1-4)[Fuc(a1-3)]GlcNAc6S
In short: as §1

[7] = molecular target: Gal3S4S(b1-4)GlcNAc
In short: as §1

[8] = molecular target: Gal3S6S(b1-4)GlcNAc
In short: as §1

[9] = molecular target: Gal3S6S(b1-4)GlcNAc6S
In short: as §1

[10] = molecular target: Gal4S(b1-4)GlcNAc
In short: as §1

[11] = molecular target: Gal4S6S(b1-4)GlcNAc
In short: as §1

[12] = molecular target: Gal6P(b1-4)GlcNAc
In short: as §1

[13] = molecular target: Gal6S(b1-3)GlcNAc
In short: as §1

[14] = molecular target: Gal6S(b1-3)GlcNAc6S
In short: as §1

[15] = molecular target: Gal6S(b1-4)Glc
In short: as §1

[16] = molecular target: Gal6S(b1-4)Glc6S
In short: as §1

[17] = molecular target: Gal6S(b1-4)GlcNAc
In short: as §1

[18] = molecular target: Gal6S(b1-4)GlcNAc6S
In short: as §1

[19] = molecular target: GalNAc(a1-3)Gal
In short: as §1

[20] = molecular target: GalNAc(a1-3)GalNAc
In short: as §1

[21] = molecular target: GalNAc(a1-3)GalNAc(b1-3)Gal(a1-4)Gal(b1-4)Glc
In short: as §1

[22] = molecular target: GalNAc(a1-3)GalNAc(b1-3)Gal(a1-4)Gal(b1-4)GlcNAc
In short: as §1

[23] = molecular target: GalNAc(b1-3)Gal
In short: as §1

[24] = molecular target: GalNAc(b1-3)Gal(a1-4)Gal(b1-4)GlcNAc
In short: as §1

[25] = molecular target: GalNAc(b1-3)Gal(a1-4)Gal(b1-4)GlcNAc(b1-3)Gal(b1-4)Glc
In short: as §1

[26] = molecular target: GalNAc(b1-3)Gal(a1-6)Gal(b1-4)Glc
In short: as §1

[27] = molecular target: GalNAc(b1-3)GalNAc
In short: as §1

[28] = molecular target: GalNAc(b1-3)GlcNAc
In short: as §1

[29] = molecular target: GalNAc(b1-4)Gal(b1-4)Glc
In short: as §1

[30] = molecular target: GalNAc(b1-4)GlcNAc
In short: as §1

[31] = molecular target: GalNAc(b1-4)GlcNAc(b1-2)Man
In short: as §1

[32] = molecular target: GalNAc(b1-4)GlcNAc(b1-2)Man(a1-3)[GalNAc(b1-4)GlcNAc(b1-2)Man(a1-6)]Man(b1-4)GlcNAc(b1-4)GlcNAc
In short: as §1

[33] = molecular target: GalNAc(b1-4)GlcNAc(b1-3)GalNAc(b1-4)GlcNAc
In short: as §1

[34] = molecular target: GalNAc(b1-4)GlcNAc6S
In short: as §1

[35] = molecular target: GalNAc(b1-6)GalNAc
In short: as §1

[36] = molecular target: GalNAc3S(b1-4)GlcNAc
In short: as §1

[37] = molecular target: GalNAc3S(b1-4)GlcNAc3S
In short: as §1

B1: SJCP1531 (Schistosoma japonicum) (protein)
chain: MFKVRIINLVNISTVLLLINLLQTKSQVNVEQLVTVLEVNIKAQLKNKTTEVLVEWNPLYQDNSMPEYRKLLDETCKLFLPFVNEKVPPSTYGGECTNANFSEAPQDGSYSRVNAELRLIYKYSDNPQIQTDRLQDDLNDREEFITSESSFVAYNPKFTVKIEKLFIPISESQTTPPPTTAKNDASKKDDDDNGGEDSKAPIDTFAMTASGNKGKKDDDDNGGEDSKAPIDTFAMTASGSKDERSTWTIIGIITLVVLIFVVIGGGITVFVKRC
glycan array binding signal (z-score) [1]: -0.369
glycan array binding signal (z-score) [2]: -0.295
glycan array binding signal (z-score) [3]: 0.508
glycan array binding signal (z-score) [4]: 0.708
glycan array binding signal (z-score) [5]: 0.704
glycan array binding signal (z-score) [6]: 1.28
glycan array binding signal (z-score) [7]: -0.234
glycan array binding signal (z-score) [8]: 1.01
glycan array binding signal (z-score) [9]: 3.17
glycan array binding signal (z-score) [10]: -0.78
glycan array binding signal (z-score) [11]: -0.722
glycan array binding signal (z-score) [12]: -1.05
glycan array binding signal (z-score) [13]: 0.127
glycan array binding signal (z-score) [14]: 1.38
glycan array binding signal (z-score) [15]: -0.424
glycan array binding signal (z-score) [16]: -0.87
glycan array binding signal (z-score) [17]: -0.352
glycan array binding signal (z-score) [18]: 1.72
glycan array binding signal (z-score) [19]: 1.48
glycan array binding signal (z-score) [20]: 0.614
glycan array binding signal (z-score) [21]: -1.11
glycan array binding signal (z-score) [22]: 0.943
glycan array binding signal (z-score) [23]: 0.65
glycan array binding signal (z-score) [24]: -0.285
glycan array binding signal (z-score) [25]: 0.838
glycan array binding signal (z-score) [26]: -1.1
glycan array binding signal (z-score) [27]: 0.218
glycan array binding signal (z-score) [28]: -1.66
glycan array binding signal (z-score) [29]: -0.062
glycan array binding signal (z-score) [30]: 0.689
glycan array binding signal (z-score) [31]: -1.15
glycan array binding signal (z-score) [32]: -0.787
glycan array binding signal (z-score) [33]: -0.416
glycan array binding signal (z-score) [34]: -0.226
glycan array binding signal (z-score) [35]: 2.81
glycan array binding signal (z-score) [36]: -0.858
glycan array binding signal (z-score) [37]: -0.422
